From PubChem BioAssay AID1259354 (Paczesny and Yang Labs, IUPUI and University of Michigan, 2018)
The campaign covered roughly 78,000 compounds. About 1,800 (2.3%) were called active. Inconclusive results, whose numbers are uncertain, are shown with a selection of clear calls. Rule as the data show it: active = inhibition above about 30%; inconclusive = mostly about 10% to 28%; inactive = weaker than that.

Sequences of proteins named here, by UniProt entry; tags and fusion partners are left off. A change or cut given only in a name is not applied to a line headed by its entry.
UniProt Q01638: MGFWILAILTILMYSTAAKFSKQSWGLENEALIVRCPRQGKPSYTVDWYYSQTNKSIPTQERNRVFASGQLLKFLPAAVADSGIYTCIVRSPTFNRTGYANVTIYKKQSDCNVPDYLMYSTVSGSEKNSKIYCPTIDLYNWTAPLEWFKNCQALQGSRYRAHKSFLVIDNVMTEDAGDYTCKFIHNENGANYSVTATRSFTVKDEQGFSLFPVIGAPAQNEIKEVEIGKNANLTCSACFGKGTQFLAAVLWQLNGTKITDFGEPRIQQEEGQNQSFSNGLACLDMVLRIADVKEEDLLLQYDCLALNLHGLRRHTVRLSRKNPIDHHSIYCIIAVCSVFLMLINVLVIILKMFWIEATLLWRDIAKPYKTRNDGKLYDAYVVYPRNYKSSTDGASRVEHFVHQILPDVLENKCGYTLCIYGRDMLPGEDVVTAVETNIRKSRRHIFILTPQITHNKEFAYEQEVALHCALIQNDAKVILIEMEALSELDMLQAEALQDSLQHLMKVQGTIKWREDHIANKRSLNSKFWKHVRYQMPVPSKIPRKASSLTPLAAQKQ

Each compound was assayed against Interleukin-1 receptor-like 1 (Homo sapiens) (UniProt Q01638) (assay: blocks human ST2 binding to IL-33, primary screen, biochemical, AlphaLISA (AID 1259354)). Conditions: AlphaLISA ST2-Fc/biotin-IL-33 interaction, 1 h; at 17 µM, stronger effect = higher value.
In the case of `CCOc1ccc(N2CC(C(=O)Nc3ccccc3OCC)CC2=O)cc1` (stereo unspecified), the inhibition is reported as “inactive”.
`CCC1=NOC(Cn2cnc(-c3ccccc3)c2-c2ccco2)C1` (stereo unspecified) was tested, and the inhibition was “inactive”.
With `N/C(=N/OC(=O)COc1ccccc1)c1ccccn1` the inhibition was “inactive”.
For `O=C(O)c1cccnc1N1CCC(N2CCCC2=O)CC1`, the inhibition was “inactive”.
`CCOc1ccc(C2C(C(N)=O)=C(C)Nc3nc(SCc4ccccc4)nn32)cc1` (stereo unspecified) was tested, and the inhibition was inconclusive: 10%.
With `O=C(NCc1ccc2c(c1)OCO2)c1ccc2c(=O)n(CCc3ccccc3)c(=O)[nH]c2c1` the inhibition was inconclusive: 10%.
`O=C(NCCCN1CCCC1)c1ccc2c(c1)ncn2C1CCCC1` was tested, and the inhibition was inconclusive: 15%.
`CC1CC(=O)NN=C1c1ccc(Cl)cc1` (stereo unspecified) was tested, and the inhibition was inconclusive: 10%.
`Fc1ccc(-c2nc(-c3ccccc3)c3ccccn23)cc1` was tested, and the inhibition was inconclusive: 26%.
In the case of `Cc1ccc(S(=O)(=O)N(CC(=O)N2CCC(C(N)=O)CC2)C2CCCCC2)cc1`, the inhibition is reported as inconclusive: 16%.
For `Cc1cc(Cl)ccc1OCC(=O)Nc1nnc(CCC(=O)c2ccccc2)s1`, the inhibition was inconclusive: 19%.
With `CC(=O)N1CCc2nc(C)nc(N(C)CC(O)c3ccccc3)c2CC1` (stereo unspecified) the inhibition was “inactive”.
In the case of `CCOC(=O)C1(CCCc2ccccc2)CCN(C(=O)c2ccc(OC)o2)CC1`, the inhibition is reported as inconclusive: 16%.
`Cc1ccc(C2CC(c3ccc(Br)cc3)=NN2C(=O)CCC(=O)O)cc1` (stereo unspecified) was tested, and the inhibition was inconclusive: 19%.
For `Cc1cccc(-n2ncc3c(N(C)Cc4ccccc4)ncnc32)c1`, the inhibition was inconclusive: 11%.
`Nc1cccc(-c2cccc(C(=O)O)c2)n1` was tested, and the inhibition was “inactive”.
For `O=C(Nc1cccc(Cl)c1)c1ccccc1C(=O)Nc1cccc(Cl)c1`, the inhibition was inconclusive: 16%.
For `CCC(C)OC(=O)C1=C(C)NC2=C(C(=O)C(C(=O)OC)C(C)C2)C1c1cccc(OC)c1OC` (stereo unspecified), the inhibition was “inactive”.
For `C#CC(C)(C)NC(=O)C1CCCN(CC(N)=O)C1` (stereo unspecified), the inhibition was “inactive”.
In the case of `CN1CC(=O)N2C[C@@H](NC(=O)c3nc4c(s3)CCCC4)C[C@H]2C1=O`, the inhibition is reported as inconclusive: 10%.
For `CCC(C)OC(=O)C1=C(C)NC2=C(C(=O)C(C(=O)OC)C(C)C2)C1c1cccc(F)c1` (stereo unspecified), the inhibition was “inactive”.
With `C=CCN(Cc1ccccn1)c1ncnc2sc3c(c12)CCNC3` the inhibition was inconclusive: 22%.
For `Cc1cccc(C)c1NS(=O)(=O)c1ccc2c(c1)CCC(=O)N2`, the inhibition was “inactive”.
For `CCOc1ccc(C2CC(c3ccc(CC)cc3)Nc3ncnn32)cc1` (stereo unspecified), the inhibition was “inactive”.
For `CN1[C@@H](CCC(=O)N2CCCC2)CNC(=O)[C@@H]2[C@H]1CCN2CC(C)(C)C`, the inhibition was inconclusive: 15%.
For `CN(C)CCSc1nc2ccccc2n1CCc1ccccc1`, the inhibition was “inactive”.
`O=C(c1cccnc1N1CCN(Cc2ccoc2)CC1)N1CCCCC1` was tested, and the inhibition was “inactive”.
In the case of `CC(C)CN1CCC[C@H]1c1nc(-c2ccc(F)cn2)no1`, the inhibition is reported as inconclusive: 17%.
In the case of `N#CC1=C(N)SC(N)=C(C#N)C1c1ccc2c(c1)OCO2`, the inhibition is reported as “inactive”.
In the case of `O=C1N/C(=C\c2ccc(-c3cccc([N+](=O)[O-])c3)o2)C(=O)N1Cc1ccc(Cl)cc1`, the inhibition is reported as inconclusive: 15%.
In the case of `Cc1ccc(Oc2c(F)c(F)nc(N3CCOCC3)c2F)cc1`, the inhibition is reported as “inactive”.
`N#Cc1c(-c2ccc(Cl)cc2)cc(C2CC2)nc1N` was tested, and the inhibition was “inactive”.
`Cc1cc(C(F)(F)F)c(C#N)c(SCC(=O)c2ccccc2)n1` was tested, and the inhibition was inconclusive: 21%.
In the case of `O=C1Nc2ccccc2C(O)(C(=O)NCCCN2CCCC2)N1c1ccc(Cl)c(Cl)c1` (stereo unspecified), the inhibition is reported as “inactive”.
For `COc1cccc(Cn2nc(C(=O)NC3CC3)c3c2CCN(C(=O)CCc2c[nH]c4ccccc24)C3)c1`, the inhibition was “inactive”.
With `COc1cccc(Cn2c(CNC(=O)c3ccc(OC)cc3OC)nc3cccnc32)c1` the inhibition was inconclusive: 13%.
`COc1ccc(OC)c(CNc2nc(-c3nnc(-c4cccc(C)c4)o3)nc3ccccc23)c1` was tested, and the inhibition was “inactive”.
In the case of `O=C(c1cc(=O)[nH]c2ccccc12)N1CC(c2ccncc2)C1`, the inhibition is reported as “inactive”.
For `O=S(=O)(CCOc1ccccc1)N1C[C@H]2CC=CC[C@H]2C1`, the inhibition was “inactive”.
With `Cc1cc(=O)[nH]c(SC(C(=O)O)c2ccccc2)n1` (stereo unspecified) the inhibition was “inactive”.
`O=C(O)CCC(=O)N1N=C(c2cccs2)CC1c1cn(-c2ccccc2)nc1-c1ccccc1` (stereo unspecified) was tested, and the inhibition was inconclusive: 12%.
With `CCCCNC(=O)C1CCCN(Cc2nc(-c3ccc(CC)cc3)oc2C)C1` (stereo unspecified) the inhibition was inconclusive: 12%.
For `Nc1c(C(=O)NCCc2ccccc2)nnn1Cc1ccc(Cl)cc1`, the inhibition was “inactive”.
In the case of `COCCNS(=O)(=O)c1ccc2c(c1)CCN2C(=O)C1CC1`, the inhibition is reported as “inactive”.
With `COc1ccc(C2Nc3ccccc3NC3=C2C(=O)CCC3)cc1` (stereo unspecified) the inhibition was inconclusive: 17%.
In the case of `N#C/C(=C/c1cn(Cc2ccccc2)c2ccccc12)C(=O)NCC1CCCO1` (stereo unspecified), the inhibition is reported as inconclusive: 15%.
In the case of `CCCN=C(NS(=O)(=O)c1ccc(C)cc1)c1ccc(F)cc1`, the inhibition is reported as “inactive”.
In the case of `COc1cccc(N2CCN(S(=O)(=O)c3ccc(Br)cc3)CC2)c1`, the inhibition is reported as inconclusive: 10%.
`O=C(CC(=O)c1ccc(C(=O)CC(=O)c2ccccc2)cc1)c1ccccc1` was tested, and the inhibition was inconclusive: 12%.
For `Cc1nn(CC(=O)O)c(C)c1NC(=O)CSc1ccncc1`, the inhibition was “inactive”.
In the case of `COc1cccc(OC)c1C(=O)N=c1sc2ccccc2n1C`, the inhibition is reported as inconclusive: 12%.
With `c1ccc(CN2CCN(Cc3cccs3)CC2)cc1` the inhibition was “inactive”.
With `CCSc1nc2c(c(=O)[nH]1)C(c1ccc(OC)c(OC)c1)C1=C(CC(C)(C)CC1=O)N2` (stereo unspecified) the inhibition was “inactive”.
With `CC(=O)Nc1ccc(NC(=O)c2ccc(=O)n(Cc3ccc(Cl)cc3)c2)cc1` the inhibition was “inactive”.
For `Cc1cc(C)n(CCCN(C)Cc2c(C)nn(C)c2Cl)n1`, the inhibition was inconclusive: 17%.
For `COc1ccccc1OCCOc1cc(C)ccc1C`, the inhibition was “inactive”.
`c1ccc(COC2CCCN(Cc3cnc(-c4ccccn4)nc3)C2)nc1` (stereo unspecified) was tested, and the inhibition was inconclusive: 20%.
`O=C(Nc1ccc2c(c1)oc1ccccc12)c1ccc([N+](=O)[O-])o1` was tested, and the inhibition was “inactive”.
In the case of `Cc1ccc(OCCOc2ccc([N+](=O)[O-])cc2/C=C2\C(=O)NN(c3ccccc3)C2=O)cc1C`, the inhibition is reported as inconclusive: 21%.
`O=C(C1CCOCC1)N1CCOC(CC(c2ccccc2)c2ccccc2)C1` (stereo unspecified) was tested, and the inhibition was “inactive”.
With `CCOC(=O)C1CCCN(S(=O)(=O)c2ccc3c(c2)c(=O)n(C)c(=O)n3C)C1` (stereo unspecified) the inhibition was “inactive”.
With `COCCNC(=O)[C@@H](C)[C@@H]1CCc2c(C)cc(OCC(=O)O)c(C)c2C1` the inhibition was inconclusive: 12%.
With `CCCC(=O)N(c1ccc(C)c(C)c1)C1C=CS(=O)(=O)C1` (stereo unspecified) the inhibition was “inactive”.
`Cn1c(=O)[nH]c(=O)c2c1nc(CN1CCN(c3ccccc3F)CC1)n2Cc1ccccc1` was tested, and the inhibition was “inactive”.
In the case of `CCOC(=O)C(Cc1ccc(F)cc1)SC#N` (stereo unspecified), the inhibition is reported as “inactive”.
With `CCOC(=O)N1CCN(C2CCCN(Cc3cccn3-c3nccs3)C2)CC1` (stereo unspecified) the inhibition was inconclusive: 23%.
For `CCOC(=O)C1C(=O)C=C(c2ccc(OC)cc2)CC1c1ccccc1OCC` (stereo unspecified), the inhibition was inconclusive: 10%.
With `CN(CCc1ccccn1)C(=O)c1ccccc1F` the inhibition was inconclusive: 11%.
For `OCCCn1cnc(-c2ccccc2)c1-c1ccc(Cl)s1`, the inhibition was “inactive”.
`CN(C)C1=C(C(=O)c2ccccc2)N(CC(=O)c2ccccc2)S(=O)(=O)c2ccccc21` was tested, and the inhibition was inconclusive: 20%.
With `CCSc1nc2c([nH]c3ccccc32)c(=O)n1-c1ccccc1` the inhibition was “inactive”.
For `C=C1C[C@H](O)[C@@H](O)[C@@]2(C)C1[C@@H](O)[C@H]1OC(=O)C3[C@@H](C)[C@@H](O)[C@@H](O)C2[C@]31C` (stereo partly specified), the inhibition was “inactive”.
For `O=C(NC1CCCCC1)N1CCC(n2cc(-c3ccccn3)nn2)CC1`, the inhibition was “inactive”.
`CN(Cc1ccc(C(F)(F)F)cc1)C1CCN(c2cccc(NC(=O)c3ccncc3)c2)CC1` was tested, and the inhibition was inconclusive: 15%.
With `COc1ccc(-c2nnc(NC(=O)C(F)(F)F)s2)cc1OC` the inhibition was “inactive”.
With `O=[N+]([O-])c1cccc(NS(=O)(=O)c2cc(Cl)ccc2Cl)c1` the inhibition was “inactive”.
In the case of `COc1cccc(Cn2c(CNS(=O)(=O)c3cnn(C(F)F)c3C)nc3cccnc32)c1`, the inhibition is reported as inconclusive: 10%.
In the case of `COc1ccc(S(=O)(=O)Nc2ccc3n(c2=O)C[C@H]2C[C@@H]3CN(C(=O)COc3ccccc3)C2)cc1`, the inhibition is reported as “inactive”.
In the case of `O=C(Nc1ccc2nc(-c3ccccn3)c(-c3ccccn3)nc2c1)N1CCCC1`, the inhibition is reported as inconclusive: 15%.
For `CC(=O)N1CCN(c2nc3ccc(C)cc3cc2CN(CCC2=CCCCC2)C(=O)C(C)C)CC1`, the inhibition was “inactive”.
For `O=C(NCC1CCN(Cc2ccc3nonc3c2)C1)c1ccccn1` (stereo unspecified), the inhibition was inconclusive: 20%.
In the case of `O=C(NCCCN1CCCC1)c1cc(=O)[nH]c2ccc(S(=O)(=O)N3CCCCCC3)cc12`, the inhibition is reported as “inactive”.
In the case of `O=C1C2C(c3ccccc3O)NC(Cc3cnc[nH]3)(C(=O)O)C2C(=O)N1Cc1ccccc1` (stereo unspecified), the inhibition is reported as “inactive”.
With `O=C1OC(Nc2ccc(OC(F)(F)F)cc2)c2ccccc21` (stereo unspecified) the inhibition was “inactive”.
In the case of `Cc1cc(C)c(NS(=O)(=O)c2ccc(NC(=O)c3ccccc3[N+](=O)[O-])cc2)c(C)c1`, the inhibition is reported as “inactive”.
`COc1ccc(C2C(C(=O)NCCC3=CCCCC3)c3cc(OC)c(OC)cc3C(=O)N2C)cc1` (stereo unspecified) was tested, and the inhibition was “inactive”.
For `C#CCN(C)C(=O)c1ccc(OCC(N)=O)cc1`, the inhibition was “inactive”.
In the case of `CC(C)[C@@H](C)n1c(CCc2ccccc2)n[nH]c1=O`, the inhibition is reported as “inactive”.
With `Cn1c(=N)n(CC(=O)c2ccc(Cl)c(Cl)c2)c2ccccc21` the inhibition was inconclusive: 11%.
For `O=C(CCc1cn(Cc2ccccc2)c2ccccc12)NCc1ccco1`, the inhibition was inconclusive: 18%.
With `CCc1cc2c(=O)c(-c3ccc(Br)cc3)coc2cc1O` the inhibition was “inactive”.
For `COc1ccccc1-c1nnc(Nc2nc3c(F)cccc3s2)o1`, the inhibition was “inactive”.
`O=C1NC(=Nc2ccccc2Cl)S/C1=C/c1cc2c(cc1Cl)OCO2` was tested, and the inhibition was active: 31%.
In the case of `CCC(CC)n1ncc(C)c1NC(=O)CCc1cccnc1`, the inhibition is reported as “inactive”.
In the case of `O=C(CN1C(=O)S/C(=C\c2c(Cl)cccc2Cl)C1=O)Nc1cccnc1`, the inhibition is reported as inconclusive: 22%.
For `O=C1C[C@@H](c2ccccc2)Oc2cc(O[C@@H]3O[C@H](CO)[C@@H](O)[C@H](O)[C@H]3O)ccc21`, the inhibition was inconclusive: 20%.
